## Library screening results

The values are deposited in ChEMBL (CHEMBL3988442, “University of Dundee, Small-Polar-MMV Screening Library” (2021)).

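Assay on Mycobacterium tuberculosis, filed only as a heat shock assay from Cornell; the read-out is not stated. The concentration is filed as 10 mM, unlikely as a test dose, so the dose is not known. Direction is inferred from retests: higher values go with stronger inhibition. Size under these conditions: about 69,000 compounds, about 930 of them at 50% or above in at least one test.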

Values are the deposited “Percent Effect”, in %. The record does not define 0% and 100%; most values in the screen are far below 50% and negative numbers occur (in some assays of this library far below -100). The compounds are a random part of those screened.

compound,Percent Effect
COc1ccc(Br)cc1CCC(=O)N1CCC(O)CC1,11.99%
Cc1nc(C)n(C2CCCN(C(=O)Cc3cccnc3)C2)n1 (stereo not given),9.195%
CC(C)N(C)S(=O)(=O)N1CCN(Cc2ccco2)CC1,-42.28%
O=C(O)C(F)(F)F.O=C(O)C(F)(F)F.[H][C@@]12CCN(c3ccccc3)C[C@]1([H])[C@H](C(=O)Nc1cccnc1C)CCO2,12.9%
Cc1ccc2nc(CNCCCN3CCCC3=O)cc(O)c2c1,-20.87%
CC(C)n1cc(CN(Cc2ccc(F)cc2)CC2CCCO2)cn1 (stereo not given),-49.03%
Cc1cc(OCC(=O)N2CCCC(c3noc(C)n3)C2)no1 (stereo not given),1.693%
Cc1cnc2n(c1=O)CC(C(=O)NCc1ccccc1Cl)CS2 (stereo not given),7.359%
CN(CCOCC1CC1)C(=O)Nc1ccc([S+](C)[O-])c(F)c1 (stereo not given),-3.034%
Cc1nccn1C1CCCN(C(=O)c2cccc(Cn3ccnc3)c2)C1 (stereo not given),-2.678%
CCC(=O)N1CCC(Cc2ccccc2-c2ccccc2)(C(N)=O)C1 (stereo not given),5.054%
O=C(CCc1ccc2c(c1)CCO2)Nc1nnn[nH]1,-3.477%
O=C(O)C(F)(F)F.[H][C@]12CCNCC[C@@]1([H])S(=O)(=O)N(CCc1cccc(OC)c1)C2,-24.42%
O=C(O)CC(O)(CC(=O)O)C(=O)O.[H][C@]12CC[C@](O)(c3ccccn3)[C@@]1([H])CN(Cc1cccc3ncccc13)C2,-22.27%
CC(C)[C@@H]1CN(Cc2ccccc2C#N)C[C@H]1N(C)C,-35.85%
OC1(CNCc2ccc(F)c(C(F)(F)F)c2)CCOC1 (stereo not given),-24.73%
Cc1cc(C)n(CC2CN(Cc3nc(-c4ccco4)no3)CCO2)n1 (stereo not given),10.63%
c1ccc(N2CCc3ncnc(C4CC4)c3CC2)nc1,-7.376%
Cc1ccc(Cl)c(CN2CCC(c3nccn3C(C)C)CC2)c1F,20.85%
CCC(NC(=O)C1CCN(C(C)C)CC1)c1cn2cccnc2n1 (stereo not given),7.742%
Cc1nn(C)c(C)c1CCC(=O)NCC1(C(N)=O)CCOCC1,10.07%
[H][C@]12CCCCN1CCC[C@H]2CN(C)Cc1ccc(-n2cccn2)cc1,-24.54%
O=C1CCCN1c1cccc(CNCc2nc(C3CC3)no2)c1,8.137%
Cc1ccc(CN2CCN(C3CCC3)CC2CCO)o1 (stereo not given),-23.36%
CCOc1cc(NC(=O)N2CCC(c3nnc[nH]3)CC2)ccc1C,9.422%
CC(C)n1[nH]c(=O)c2c1NC(=O)CC2c1cccnc1 (stereo not given),-7.935%
COc1ncccc1CNC(=O)NCCNC(=O)c1ccco1,-2.761%
OCCC1CN(c2nc(-c3ccncc3)nc3c2CCNCC3)CCO1 (stereo not given),-8.023%
CCC(SC)C(=O)N1CCC(n2cccn2)CC1 (stereo not given),8.05%
Cc1cccc(-c2ncc(CNC(C)Cc3ncccc3C)cn2)c1 (stereo not given),1.404%
NC(=O)CN(Cc1ncc(-c2ccc(Cl)cc2)o1)C1CCCC1,-13.58%
Cc1nc(C)n(CC2CCCN(CCNC(=O)OC(C)(C)C)C2)n1 (stereo not given),7.372%
CC(=O)c1ccc(NCc2cc3n(n2)CCCN(S(C)(=O)=O)C3)nc1,20.56%
CCN1CCn2c(C)cnc2C12CCN(C(=O)NC)CC2.O=C(O)C(F)(F)F,1.846%
O=C(Cc1ccc2c(c1)OCCO2)NCCc1nnc2n1CCC2,-16.31%
COCCNC(=O)C1CN(Cc2cccnc2)Cc2ccnn2C1.O=C(O)C(F)(F)F.O=C(O)C(F)(F)F.O=C(O)C(F)(F)F (stereo not given),-10.14%
CC(C)C1CN(S(=O)(=O)N(C)C)CCCN1Cc1ccc(F)cc1 (stereo not given),4.074%
CCn1cnnc1CNS(=O)(=O)N1CCCC1c1ccco1 (stereo not given),3.521%
CCC1(C)Cc2ccccc2-c2nc(NCCO)nc(O)c21 (stereo not given),-2.002%
Cc1occc1C(=O)N1Cc2nccn2CC(CN(C)C)C1.O=C(O)C(F)(F)F (stereo not given),-7.5%
O=C(Cc1csc(-c2ccccc2F)n1)NCc1cccc(C(=O)O)c1,2.926%
CCCN(Cc1ccccc1)Cn1nc(C)c2c(C)onc2c1=O,-6.593%
Cc1nc(C)n(CCNC2CCN(c3ncnc4c(C)csc34)CC2)n1,-17.63%
CCOC(=O)CNC(=O)NCc1cccn1Cc1ccc(F)cc1,-4.148%
COc1ccccc1N1CCN(C(=O)CCc2nncn2C)C(C)C1 (stereo not given),-17.8%
COc1ccc(CNC(=O)Nc2ccc(=O)n(C)c2)cc1,27.06%
Cc1ccsc1C(=O)N1CCC(Nc2cccnc2)CC1,-13.32%
CCn1cnnc1CNC(=O)N(C)Cc1ccccc1OC,-0.2301%
COc1c(CNC2CCc3c(Cl)cccc32)c(C)nn1C.Cl (stereo not given),-6.569%
O=C1CC(c2cccs2)c2sc(C(=O)O)c(-c3ccccc3)c2N1 (stereo not given),8.841%
[H][C@@]12COC[C@]1(C(=O)NCCc1cccs1)CN(S(C)(=O)=O)C2,0.04321%
CC(CNC(=O)c1ccc(F)cc1Cl)N1CCCC1 (stereo not given),4.768%
CNC(=O)C1(c2cnccn2)CCCN1C(=O)c1cccc(C)n1 (stereo not given),1.098%
c1cncc(CN(Cc2ccc(-n3ccnc3)cc2)CC2CCCO2)c1 (stereo not given),-8.265%
O=C(O)C(F)(F)F.c1cnc(N2CCC3(CCCN(CC4CC4)C3)CC2)nc1,-35.48%
COc1ccc(OC)c(C2CCN(C(=O)C3CCN(C(C)C)CC3)C2)c1 (stereo not given),-35.35%

Some entries from above, unchanged:

| compound | Percent Effect |
|---|---|
| `COCCNC(=O)C1CN(Cc2cccnc2)Cc2ccnn2C1.O=C(O)C(F)(F)F.O=C(O)C(F)(F)F.O=C(O)C(F)(F)F` (stereo not given) | -10.14% |
| `c1cncc(CN(Cc2ccc(-n3ccnc3)cc2)CC2CCCO2)c1` (stereo not given) | -8.265% |
| `Cc1ccc(Cl)c(CN2CCC(c3nccn3C(C)C)CC2)c1F` | 20.85% |
| `CNC(=O)C1(c2cnccn2)CCCN1C(=O)c1cccc(C)n1` (stereo not given) | 1.098% |
| `Cc1nc(C)n(C2CCCN(C(=O)Cc3cccnc3)C2)n1` (stereo not given) | 9.195% |
| `COc1ccc(OC)c(C2CCN(C(=O)C3CCN(C(C)C)CC3)C2)c1` (stereo not given) | -35.35% |